These are yes or no findings as the source states them, for the method shown. Binding seen in cells or lysates may run through a third protein. Some entries that bind do so weakly or less than the wild type.

Sequences of proteins named here, by UniProt entry; tags and fusion partners are left off.
UniProt Q14839: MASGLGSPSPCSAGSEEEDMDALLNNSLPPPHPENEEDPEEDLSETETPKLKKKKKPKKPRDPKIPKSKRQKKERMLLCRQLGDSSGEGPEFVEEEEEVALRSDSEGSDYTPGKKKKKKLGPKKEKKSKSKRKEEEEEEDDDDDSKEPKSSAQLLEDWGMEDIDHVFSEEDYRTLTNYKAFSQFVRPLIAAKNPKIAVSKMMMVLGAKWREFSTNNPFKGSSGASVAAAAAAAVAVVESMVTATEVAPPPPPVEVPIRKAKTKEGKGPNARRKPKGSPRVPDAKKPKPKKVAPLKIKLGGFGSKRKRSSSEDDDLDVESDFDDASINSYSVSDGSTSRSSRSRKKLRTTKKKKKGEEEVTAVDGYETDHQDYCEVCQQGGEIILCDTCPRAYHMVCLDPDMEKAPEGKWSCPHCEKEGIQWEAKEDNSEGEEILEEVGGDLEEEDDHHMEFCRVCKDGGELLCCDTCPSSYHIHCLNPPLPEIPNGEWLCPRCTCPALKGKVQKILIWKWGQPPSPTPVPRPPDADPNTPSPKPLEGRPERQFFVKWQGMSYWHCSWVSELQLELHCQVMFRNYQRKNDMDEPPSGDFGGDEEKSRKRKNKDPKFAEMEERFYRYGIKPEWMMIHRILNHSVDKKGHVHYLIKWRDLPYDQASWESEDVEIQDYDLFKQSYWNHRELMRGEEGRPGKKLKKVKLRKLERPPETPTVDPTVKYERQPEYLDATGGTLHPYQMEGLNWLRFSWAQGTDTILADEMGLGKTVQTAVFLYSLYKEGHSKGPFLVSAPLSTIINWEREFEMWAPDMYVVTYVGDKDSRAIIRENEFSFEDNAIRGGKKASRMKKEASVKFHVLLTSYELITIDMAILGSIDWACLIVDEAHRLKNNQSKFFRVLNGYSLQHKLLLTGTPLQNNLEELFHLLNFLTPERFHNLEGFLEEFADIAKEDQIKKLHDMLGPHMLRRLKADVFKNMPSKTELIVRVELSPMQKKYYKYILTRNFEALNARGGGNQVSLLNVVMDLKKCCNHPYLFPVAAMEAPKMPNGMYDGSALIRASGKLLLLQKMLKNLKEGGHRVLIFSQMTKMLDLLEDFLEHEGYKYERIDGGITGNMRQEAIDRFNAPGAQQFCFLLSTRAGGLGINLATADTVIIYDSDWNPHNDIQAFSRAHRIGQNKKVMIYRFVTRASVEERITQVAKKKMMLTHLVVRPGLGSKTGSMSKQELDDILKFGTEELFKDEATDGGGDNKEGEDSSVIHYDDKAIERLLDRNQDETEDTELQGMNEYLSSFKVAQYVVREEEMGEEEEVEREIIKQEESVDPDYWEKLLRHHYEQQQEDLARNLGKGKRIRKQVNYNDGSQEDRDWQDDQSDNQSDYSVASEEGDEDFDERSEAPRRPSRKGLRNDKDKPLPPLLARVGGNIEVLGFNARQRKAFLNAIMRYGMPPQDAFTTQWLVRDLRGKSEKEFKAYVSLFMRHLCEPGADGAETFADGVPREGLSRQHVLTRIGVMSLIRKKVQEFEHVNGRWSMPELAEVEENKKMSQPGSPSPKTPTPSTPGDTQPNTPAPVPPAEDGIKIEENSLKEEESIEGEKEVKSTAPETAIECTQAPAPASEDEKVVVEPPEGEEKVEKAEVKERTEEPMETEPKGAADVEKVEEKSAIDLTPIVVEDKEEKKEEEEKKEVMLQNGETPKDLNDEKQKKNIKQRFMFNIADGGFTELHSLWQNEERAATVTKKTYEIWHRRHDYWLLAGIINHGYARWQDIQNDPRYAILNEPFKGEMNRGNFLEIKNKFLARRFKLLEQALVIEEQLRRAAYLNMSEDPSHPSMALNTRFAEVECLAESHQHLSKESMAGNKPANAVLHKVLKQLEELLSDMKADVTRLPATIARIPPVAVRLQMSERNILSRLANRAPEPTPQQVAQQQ

The assay has as its target full-length Flag-CHD4 (chromodomain helicase DNA-binding protein 4) (UniProt Q14839). In words: peptide pull-down: 100 nM purified Flag-CHD4 with 1 µg N-biotinylated peptide, anti-Flag immunoblot. (In general: A western blot detects proteins with antibodies after separation by electrophoresis.)

KFAVIFWGNDPYGLKKLSQAFQFGGVK (N-terminal biotin) [#10]: the binding entry is listed as “binds”.

Values taken from patent US20250282834A1, “PEPTIDE INHIBITORS FOR CHROMODOMAIN HELICASE DNA BINDING PROTEIN 4 (CHD4)” (THE REGENTS OF THE UNIVERSITY OF CALIFORNIA, priority 2022, published 2025).
